# The list shows a part of the results.
# B1: CM2 (Cordyceps militaris) (protein)
# chain: MEIAEQNVGKSCAIVNLIPPKEGSNIWTAKQVTIARNLPPNRGTGRHQIDWSFGPVKVTGYVDTTNWEIGVTVSIMGIDLGTVYGNLRDGVVLNVDLFLAKGQVRFYLKNGNEVWVHLSVEIRFDGKFEGDYKIITV
# Assays:
# Assay in all cases: glycan array binding signal (z-score within array); higher = stronger binding
# Settings in all cases: glycan notation: IUPAC condensed, linker removed
# Gal6S(b1-4)Glc6S = biological target: Gal6S(b1-4)Glc6S
# Procedure, shortened: (§1)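 Arrays were curated from the Consortium for Functional Glycomics database, 3228 in total, and kept only where the protein sequence was available. Binding is expressed as a within-array Z-score. This score was averaged across arrays of the same protein sequence at different concentrations or buffers and across linkers, and negative values can be read as non-binding.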
# Gal6S(b1-4)GlcNAc = biological target: Gal6S(b1-4)GlcNAc
# Procedure, shortened: as §1
# Gal6S(b1-4)GlcNAc6S = biological target: Gal6S(b1-4)GlcNAc6S
# Procedure, shortened: as §1
# GalNAc(a1-3)Gal = biological target: GalNAc(a1-3)Gal
# Procedure, shortened: as §1
# GalNAc(a1-3)GalNAc = biological target: GalNAc(a1-3)GalNAc
# Procedure, shortened: as §1
# [1] = biological target: GalNAc(a1-3)GalNAc(b1-3)Gal(a1-4)Gal(b1-4)Glc
# Procedure, shortened: as §1
# [2] = biological target: GalNAc(a1-3)GalNAc(b1-3)Gal(a1-4)Gal(b1-4)GlcNAc
# Procedure, shortened: as §1
# GalNAc(b1-3)Gal = biological target: GalNAc(b1-3)Gal
# Procedure, shortened: as §1
# [3] = biological target: GalNAc(b1-3)Gal(a1-4)Gal(b1-4)GlcNAc
# Procedure, shortened: as §1
# [4] = biological target: GalNAc(b1-3)Gal(a1-4)Gal(b1-4)GlcNAc(b1-3)Gal(b1-4)Glc
# Procedure, shortened: as §1
# [5] = biological target: GalNAc(b1-3)Gal(a1-6)Gal(b1-4)Glc
# Procedure, shortened: as §1
# GalNAc(b1-3)GalNAc = biological target: GalNAc(b1-3)GalNAc
# Procedure, shortened: as §1
# GalNAc(b1-3)GlcNAc = biological target: GalNAc(b1-3)GlcNAc
# Procedure, shortened: as §1
# GalNAc(b1-4)Gal(b1-4)Glc = biological target: GalNAc(b1-4)Gal(b1-4)Glc
# Procedure, shortened: as §1
# GalNAc(b1-4)GlcNAc = biological target: GalNAc(b1-4)GlcNAc
# Procedure, shortened: as §1
# [6] = biological target: GalNAc(b1-4)GlcNAc(b1-2)Man
# Procedure, shortened: as §1
# [7] = biological target: GalNAc(b1-4)GlcNAc(b1-2)Man(a1-3)[GalNAc(b1-4)GlcNAc(b1-2)Man(a1-6)]Man(b1-4)GlcNAc(b1-4)GlcNAc
# Procedure, shortened: as §1
# [8] = biological target: GalNAc(b1-4)GlcNAc(b1-3)GalNAc(b1-4)GlcNAc
# Procedure, shortened: as §1
# GalNAc(b1-4)GlcNAc6S = biological target: GalNAc(b1-4)GlcNAc6S
# Procedure, shortened: as §1
# GalNAc(b1-6)GalNAc = biological target: GalNAc(b1-6)GalNAc
# Procedure, shortened: as §1
# GalNAc3S(b1-4)GlcNAc = biological target: GalNAc3S(b1-4)GlcNAc
# Procedure, shortened: as §1
# GalNAc3S(b1-4)GlcNAc3S = biological target: GalNAc3S(b1-4)GlcNAc3S
# Procedure, shortened: as §1
# [9] = biological target: GalNAc3S(b1-4)[Fuc(a1-3)]GlcNAc
# Procedure, shortened: as §1
# GalNAc4S6S(b1-4)GlcNAc = biological target: GalNAc4S6S(b1-4)GlcNAc
# Procedure, shortened: as §1
# GalNAc6S(b1-4)GlcNAc = biological target: GalNAc6S(b1-4)GlcNAc
# Procedure, shortened: as §1
# Glc(a1-4)Glc = biological target: Glc(a1-4)Glc
# Procedure, shortened: as §1
# [10] = biological target: Glc(a1-4)Glc(a1-4)Glc(a1-4)Glc
# Procedure, shortened: as §1
# Glc(a1-6)Glc(a1-6)Glc = biological target: Glc(a1-6)Glc(a1-6)Glc
# Procedure, shortened: as §1
# [11] = biological target: Glc(a1-6)Glc(a1-6)Glc(a1-6)Glc
# Procedure, shortened: as §1
# Glc(b1-4)Glc = biological target: Glc(b1-4)Glc
# Procedure, shortened: as §1
# Glc(b1-6)Glc = biological target: Glc(b1-6)Glc
# Procedure, shortened: as §1
# GlcA(b1-3)Gal = biological target: GlcA(b1-3)Gal
# Procedure, shortened: as §1
# GlcA(b1-3)GlcNAc = biological target: GlcA(b1-3)GlcNAc
# Procedure, shortened: as §1
# GlcA(b1-6)Gal = biological target: GlcA(b1-6)Gal
# Procedure, shortened: as §1
# [12] = biological target: GlcA3S(b1-3)Gal(b1-4)GlcNAc(b1-2)Man
# Procedure, shortened: as §1
# [13] = biological target: GlcA3S(b1-3)Gal(b1-4)GlcNAc(b1-3)Gal(b1-4)Glc
# Procedure, shortened: as §1
# [14] = biological target: GlcNAc(a1-3)Gal(b1-4)GlcNAc
# Procedure, shortened: as §1
# [15] = biological target: GlcNAc(a1-4)Gal(b1-3)GlcNAc
# Procedure, shortened: as §1
# [16] = biological target: GlcNAc(a1-4)Gal(b1-4)GalNAc
# Procedure, shortened: as §1
# [17] = biological target: GlcNAc(a1-4)Gal(b1-4)GlcNAc
# Procedure, shortened: as §1
# [18] = biological target: GlcNAc(a1-4)Gal(b1-4)GlcNAc(b1-3)Gal(b1-4)Glc
# Procedure, shortened: as §1
# [19] = biological target: GlcNAc(a1-4)Gal(b1-4)GlcNAc(b1-3)Gal(b1-4)GlcNAc
# Procedure, shortened: as §1
# [20] = biological target: GlcNAc(a1-4)Gal(b1-4)GlcNAc(b1-3)Gal(b1-4)GlcNAc(b1-3)Gal(b1-4)GlcNAc
# Procedure, shortened: as §1
# [21] = biological target: GlcNAc(a1-4)Gal(b1-4)GlcNAc(b1-3)Gal(b1-4)[Fuc(a1-3)]GlcNAc(b1-3)Gal(b1-4)[Fuc(a1-3)]GlcNAc
# Procedure, shortened: as §1
# [22] = biological target: GlcNAc(a1-6)Gal(b1-4)GlcNAc
# Procedure, shortened: as §1
binder,measurement,setting,value
B1,glycan array binding signal (z-score),Gal6S(b1-4)Glc6S,0.244
same,glycan array binding signal (z-score),Gal6S(b1-4)GlcNAc,-0.805
same,glycan array binding signal (z-score),Gal6S(b1-4)GlcNAc6S,-0.036
same,glycan array binding signal (z-score),GalNAc(a1-3)Gal,1.85
same,glycan array binding signal (z-score),GalNAc(a1-3)GalNAc,0.312
same,glycan array binding signal (z-score),[1],0.436
same,glycan array binding signal (z-score),[2],0.418
same,glycan array binding signal (z-score),GalNAc(b1-3)Gal,0.529
same,glycan array binding signal (z-score),[3],-0.165
same,glycan array binding signal (z-score),[4],0.645
same,glycan array binding signal (z-score),[5],0.739
same,glycan array binding signal (z-score),GalNAc(b1-3)GalNAc,0.397
same,glycan array binding signal (z-score),GalNAc(b1-3)GlcNAc,-0.562
same,glycan array binding signal (z-score),GalNAc(b1-4)Gal(b1-4)Glc,-0.617
same,glycan array binding signal (z-score),GalNAc(b1-4)GlcNAc,1.58
same,glycan array binding signal (z-score),[6],-0.347
same,glycan array binding signal (z-score),[7],0.183
same,glycan array binding signal (z-score),[8],0.376
same,glycan array binding signal (z-score),GalNAc(b1-4)GlcNAc6S,0.295
same,glycan array binding signal (z-score),GalNAc(b1-6)GalNAc,-0.35
same,glycan array binding signal (z-score),GalNAc3S(b1-4)GlcNAc,-0.054
same,glycan array binding signal (z-score),GalNAc3S(b1-4)GlcNAc3S,1.13
same,glycan array binding signal (z-score),[9],0.02
same,glycan array binding signal (z-score),GalNAc4S6S(b1-4)GlcNAc,0.386
same,glycan array binding signal (z-score),GalNAc6S(b1-4)GlcNAc,0.882
same,glycan array binding signal (z-score),Glc(a1-4)Glc,0.089
same,glycan array binding signal (z-score),[10],-0.263
same,glycan array binding signal (z-score),Glc(a1-6)Glc(a1-6)Glc,-0.805
same,glycan array binding signal (z-score),[11],1.46
same,glycan array binding signal (z-score),Glc(b1-4)Glc,-1.06
same,glycan array binding signal (z-score),Glc(b1-6)Glc,1.15
same,glycan array binding signal (z-score),GlcA(b1-3)Gal,-0.157
same,glycan array binding signal (z-score),GlcA(b1-3)GlcNAc,-0.388
same,glycan array binding signal (z-score),GlcA(b1-6)Gal,0.684
same,glycan array binding signal (z-score),[12],0.209
same,glycan array binding signal (z-score),[13],0.06
same,glycan array binding signal (z-score),[14],0.051
same,glycan array binding signal (z-score),[15],-0.72
same,glycan array binding signal (z-score),[16],-0.085
same,glycan array binding signal (z-score),[17],-0.93
same,glycan array binding signal (z-score),[18],-1.72
same,glycan array binding signal (z-score),[19],0.98
same,glycan array binding signal (z-score),[20],1.22
same,glycan array binding signal (z-score),[21],0.164
same,glycan array binding signal (z-score),[22],-1.59

# Some of the entries above, set out differently.
binder	measurement	setting	value
B1	glycan array binding signal (z-score)	[7]	0.183
same	glycan array binding signal (z-score)	[20]	1.22

# Reference: the supplement of paper PMC8728848
